# The whole screen tested about 410,000 compounds, of which about 18,000 (4.4%) were called active. Inconclusive results, whose numbers are uncertain, are shown with a selection of clear calls. No stated cut-off is given here; in the data, active means activity change below about -60%; inconclusive means no clear call, values can overlap the other calls; inactive means above about -39%.
# Assay: qHTS Assay for inhibitors of the human cytomegalovirus (HCMV)
# Conditions: HFF cells, HCMV-luciferase reporter, 72 h; at 57.5 µM; hits give low values
# Outline: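 Human foreskin fibroblasts infected with luciferase-reporter HCMV at MOI 1 PFU/cell, compounds at two doses. Luciferase measured 72 h post infection; normalized to buffer-only basal and Salinomycin (10uM) controls.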
# On the % scale 0 is the no-effect control and ±100 the full control effect.
row,Compound,"activity change, negative = inhibition"
1,O=c1c(=O)n(-c2ccccc2)ccn1Cc1c(F)cccc1Cl,inconclusive: -40.4%
2,CCOC(=O)c1nc(Nc2ccc(N3CCC(C)CC3)cc2)c2ccccc2n1,inactive: 5.74%
3,CCOc1ccc(-n2cnnn2)cc1S(=O)(=O)N1CCC(C)CC1C (centres undefined),inconclusive: -41.2%
4,CC(=O)Nc1ccc(N(C(=O)Cc2c[nH]c3ccccc23)C(C(=O)NC2CCCCC2)c2ccco2)cc1 (centres undefined),inconclusive: -40.5%
5,CN(C)CCN(Cc1ccccc1)C(=O)C1CCN(c2ncnc3c2nc2n3CCCCC2)CC1,inconclusive: -56.2%
6,O=c1nc2n(c3ncccc13)CCCCC2,inconclusive: -44%
7,COc1ccc(-c2nc3ccccc3c(=O)n2NC(=O)c2cccnc2Cl)cc1OC,inconclusive: -41%
8,Cn1c(=O)cc(OCC(=O)NCCC2=CCCCC2)c2ccccc21,inconclusive: -40.4%
9,Cc1cc(N2CCCCC2)nc(NCc2ccccc2)n1,active: -63.9%
10,CN(C(=S)NC(=O)C1CC1)c1ccc(O)cc1,inconclusive: -48%
11,CC(=O)Nc1nonc1-c1nnc(SCC(=O)Nc2cc(Cl)ccc2C)n1C,inactive: -13.4%
12,Cc1ccc[n+](C(C)C(=O)Nc2ccc([N+](=O)[O-])cc2C)c1 (centres undefined),inconclusive: -40.7%
13,COc1cccc(C2C=C(c3ccccc3)Nc3c(C(=O)Nc4ccccc4)cnn32)c1OC (centres undefined),inconclusive: -55.4%
14,C[n+]1ccc(C(=O)N/N=C/c2ccco2)cc1,inconclusive: -40.2%
15,Cn1c(SCc2ccc(F)cc2)nnc1-c1cnccn1,inactive: -33.5%
16,CCOc1ccccc1NC(=O)c1cccc(NC(=O)c2ccco2)c1,inconclusive: -59.3%
17,CCOC(=O)c1sc(NC(=O)Cn2nnc3sc4c(c3c2=O)CCCC4)nc1C,inconclusive: -57.3%
18,CCCCCCc1c(O)nc(SCCN(C)C)[nH]c1=O,inconclusive: -48%
19,COc1ccc(CCNC(=O)CCCn2c(=O)c3ccccc3n(Cc3ccccc3C#N)c2=O)cc1OC,inactive: -1.17%
20,Cc1ccccc1-n1nc(CO)c(C(=O)NCC(c2ccccc2)c2ccccc2)n1,active: -86.3%
21,COc1ccc(N(C(=O)c2snc(C(N)=O)c2N)C(C(=O)NC2CCCCC2)c2ccc(C)o2)c(OC)c1 (centres undefined),inconclusive: -51.6%
22,Cc1c(-c2cc(C(=O)O)no2)cnn1C,inconclusive: -49.4%

# Of the compounds above, four have a furan ring, fused or not.
row,Compound,"activity change, negative = inhibition"
4,CC(=O)Nc1ccc(N(C(=O)Cc2c[nH]c3ccccc23)C(C(=O)NC2CCCCC2)c2ccco2)cc1 (centres undefined),inconclusive: -40.5%
14,C[n+]1ccc(C(=O)N/N=C/c2ccco2)cc1,inconclusive: -40.2%
16,CCOc1ccccc1NC(=O)c1cccc(NC(=O)c2ccco2)c1,inconclusive: -59.3%
21,COc1ccc(N(C(=O)c2snc(C(N)=O)c2N)C(C(=O)NC2CCCCC2)c2ccc(C)o2)c(OC)c1 (centres undefined),inconclusive: -51.6%

# More records

row,Compound,"activity change, negative = inhibition"
1,CC(=O)N1CCN(c2ccc([N+](=O)[O-])c(NCc3cccnc3)c2)CC1,inconclusive: -48.8%
2,Brc1cccc(CSc2nnc(-c3ccncc3)o2)c1,inconclusive: -57%
3,Cc1cc(/C=N/n2c(COc3ccccc3)nc3ccccc3c2=O)c(O)c([N+](=O)[O-])c1,active: -62.9%
4,CCn1c(-c2cccc(S(=O)(=O)N3CCCC3)c2)n[nH]c1=S,inconclusive: -50.9%
5,O=S(=O)(Nc1ccc(F)c(Cl)c1)c1ccc(Br)s1,inconclusive: -43.9%
6,O=C(Oc1ccc2ccc(O)cc2c1)c1ccccc1Cl,inconclusive: -41.1%
7,COc1ccc(/C=C/c2ccc3cccc(O)c3n2)c(OC)c1OC,active: -93.5%
8,CCOC(=O)C(CC)n1nc(C)c2c(C)n(-c3ccc(C)cc3)nc2c1=O (centres undefined),inconclusive: -44.3%
9,O=C1CSC(c2cccc([N+](=O)[O-])c2)N1CCc1ccccc1 (centres undefined),inconclusive: -45.8%
10,COc1ccc(-n2cc(-c3ccc4c(c3)OCO4)n(CC(=O)Nc3cccc(C)c3C)c2=O)c(OC)c1,active: -86%
11,Fc1ccc(CNC(=S)Nc2ccc(Cl)cc2)cc1,inconclusive: -42.6%
12,CCCCN(CCCNC(=O)c1cc(Nc2ccc(OC)cc2)nc2ccccc12)Cc1ccccc1,active: -70.7%
13,COc1cc2c(cc1[N+](=O)[O-])-c1ccc([N+](=O)[O-])cc1C2=NO,active: -94.1%
14,CCN(CC(=O)NCc1ccc(F)cc1)C(=O)COc1ccc(C)c(C)c1,active: -65.4%
15,Cc1ccc(OCc2cc(C(=O)N(C)Cc3cc(C4CC4)n[nH]3)no2)cc1C,inconclusive: -50.4%
16,COc1cc(OC)cc(C(=O)Nc2ccc(-c3nc4cc(C(C)C)ccc4o3)cc2)c1,inconclusive: -48.1%
17,COCCCNC(=O)C(=O)Nc1ccc2c(c1)N(S(=O)(=O)c1cccs1)CCC2,inconclusive: -50.1%
18,Cn1c(OCc2cccnc2)nc2c1c(=O)n(Cc1ccc(Cl)cc1)c(=O)n2C,inconclusive: -53.7%
19,Cc1ccc(NC(=O)c2cc(Cl)ccc2[N+](=O)[O-])cc1C,active: -73.4%
20,Fc1ccc(NC(=S)N/N=C/c2ccc(F)c(F)c2)cc1,inconclusive: -41.2%
21,Cc1cc(=O)n(CC(=O)NC(C)c2ccccc2)c2c1c(C)nn2-c1cccc(F)c1 (centres undefined),inactive: 3.74%
22,N#Cc1[nH]nc2nc[nH]c(=O)c12,inactive: 7.1%

# From PubChem BioAssay AID1259415 (National Center for Advancing Translational Sciences (NCATS), 2018)
